{"source": "PubChem BioAssay AID652272 | Drosophila RNAi Screening Center, 2013", "assay": "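Finding fly genes that regulate Hedgehog signal transduction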 (primary screen)", "system": "Drosophila clone 8 (Cl8) cells", "reagent": "long dsRNA against Drosophila genes", "measurement": "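Plate reader light from a firefly reporter under a ptc promoter fragment that responds to Hedgehog, with Renilla light as transfection reference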", "reading the numbers": "firefly Hh reporter signal: higher = more ptc reporter light; Renilla reference signal: higher = more Renilla control light", "active means": "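Hit when the z-score averaged over two replicates is under -2 or over +3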", "calls": "active = hit: reporter lowered or raised; inactive = not a hit", "note": "The screen tested about 21,000 reagents; below is an unselected part of those with a known target gene and a result. In the full data, 503 (2.4%) were called active. 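Raw plate light values, not normalised; calls rest on replicate z-scores that were not deposited; hits include reporter decreases as well as increases.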 No sequences are given here. Not given: the amount of reagent, the time to read-out."}
{"target": "CG4269", "DRSC id": "DRSC04457", "firefly Hh reporter signal, replicate 1": 82042, "firefly Hh reporter signal, replicate 2": 56480, "Renilla reference signal, replicate 1": 1604, "Renilla reference signal, replicate 2": 5175, "Call": "inactive"}
{"target": "CG33269", "DRSC id": "DRSC10585", "firefly Hh reporter signal, replicate 1": 65260, "firefly Hh reporter signal, replicate 2": 60640, "firefly Hh reporter signal, replicate 3": 45715, "Renilla reference signal, replicate 1": 6250, "Renilla reference signal, replicate 2": 3415, "Call": "inactive"}
{"target": "loaf (lost and found)", "DRSC id": "DRSC09130", "firefly Hh reporter signal, replicate 1": 1.06e5, "firefly Hh reporter signal, replicate 2": 1.62e5, "Renilla reference signal, replicate 1": 2744, "Renilla reference signal, replicate 2": 6569, "Call": "inactive"}
{"target": "Rack1 (Receptor of activated protein kinase C 1)", "DRSC id": "DRSC03405", "firefly Hh reporter signal, replicate 1": 1.17e5, "firefly Hh reporter signal, replicate 2": 40759, "Renilla reference signal, replicate 1": 3461, "Renilla reference signal, replicate 2": 5223, "Call": "inactive"}
{"target": "Dnaaf5 (Dynein axonemal assembly factor 5)", "DRSC id": "DRSC13032", "firefly Hh reporter signal, replicate 1": 54800, "firefly Hh reporter signal, replicate 2": 2.22e5, "Renilla reference signal, replicate 1": 11792, "Renilla reference signal, replicate 2": 3993, "Call": "inactive"}
{"target": "Ddr (Discoidin domain receptor)", "DRSC id": "DRSC00922", "firefly Hh reporter signal, replicate 1": 5.18e5, "firefly Hh reporter signal, replicate 2": 1.30e5, "Renilla reference signal, replicate 1": 27104, "Renilla reference signal, replicate 2": 5936, "Call": "inactive"}
{"target": "Ddr (Discoidin domain receptor)", "DRSC id": "DRSC00923", "firefly Hh reporter signal, replicate 1": 4.66e5, "firefly Hh reporter signal, replicate 2": 1.07e5, "Renilla reference signal, replicate 1": 25429, "Renilla reference signal, replicate 2": 5720, "Call": "inactive"}
{"target": "Ddr (Discoidin domain receptor)", "DRSC id": "DRSC02150", "firefly Hh reporter signal, replicate 1": 1.39e5, "firefly Hh reporter signal, replicate 2": 56484, "Renilla reference signal, replicate 1": 3058, "Renilla reference signal, replicate 2": 5280, "Call": "inactive"}
{"target": "Ddr (Discoidin domain receptor)", "DRSC id": "DRSC03229", "firefly Hh reporter signal, replicate 1": 1.69e5, "firefly Hh reporter signal, replicate 2": 5.11e5, "firefly Hh reporter signal, replicate 3": 70682, "Renilla reference signal, replicate 1": 4672, "Renilla reference signal, replicate 2": 30163, "Call": "inactive"}
{"target": "Ddr (Discoidin domain receptor)", "DRSC id": "DRSC03230", "firefly Hh reporter signal, replicate 1": 1.91e5, "firefly Hh reporter signal, replicate 2": 78531, "Renilla reference signal, replicate 1": 5117, "Renilla reference signal, replicate 2": 6738, "Call": "inactive"}
{"target": "SREBP (Sterol regulatory element binding protein)", "DRSC id": "DRSC11182", "firefly Hh reporter signal, replicate 1": 42140, "firefly Hh reporter signal, replicate 2": 39472, "Renilla reference signal, replicate 1": 2080, "Renilla reference signal, replicate 2": 1325, "Call": "inactive"}
{"target": "CG6398", "DRSC id": "DRSC19992", "firefly Hh reporter signal, replicate 1": 1.31e5, "firefly Hh reporter signal, replicate 2": 1.25e5, "Renilla reference signal, replicate 1": 3068, "Renilla reference signal, replicate 2": 2776, "Call": "inactive"}

A portion of the results above, for reference:
{"target": "Ddr (Discoidin domain receptor)", "DRSC id": "DRSC00923", "firefly Hh reporter signal, replicate 1": 4.66e5, "firefly Hh reporter signal, replicate 2": 1.07e5, "Renilla reference signal, replicate 1": 25429, "Renilla reference signal, replicate 2": 5720, "Call": "inactive"}
{"target": "Ddr (Discoidin domain receptor)", "DRSC id": "DRSC02150", "firefly Hh reporter signal, replicate 1": 1.39e5, "firefly Hh reporter signal, replicate 2": 56484, "Renilla reference signal, replicate 1": 3058, "Renilla reference signal, replicate 2": 5280, "Call": "inactive"}
